Publication PMC7576246
These are yes or no findings as the source states them, for the method shown. Binding seen in cells or lysates may run through a third protein. Some results given as binding are weak or reduced against the parent protein; the word gives no strength. Tags and fused reporters may be left off the sequences shown. Values belong to the molecule of their own block, whether it stands above or below them.

By UniProt entry, the sequences of proteins in these tests, tags left out. Residues count along the entry.
UniProt P02545, residues 1-646: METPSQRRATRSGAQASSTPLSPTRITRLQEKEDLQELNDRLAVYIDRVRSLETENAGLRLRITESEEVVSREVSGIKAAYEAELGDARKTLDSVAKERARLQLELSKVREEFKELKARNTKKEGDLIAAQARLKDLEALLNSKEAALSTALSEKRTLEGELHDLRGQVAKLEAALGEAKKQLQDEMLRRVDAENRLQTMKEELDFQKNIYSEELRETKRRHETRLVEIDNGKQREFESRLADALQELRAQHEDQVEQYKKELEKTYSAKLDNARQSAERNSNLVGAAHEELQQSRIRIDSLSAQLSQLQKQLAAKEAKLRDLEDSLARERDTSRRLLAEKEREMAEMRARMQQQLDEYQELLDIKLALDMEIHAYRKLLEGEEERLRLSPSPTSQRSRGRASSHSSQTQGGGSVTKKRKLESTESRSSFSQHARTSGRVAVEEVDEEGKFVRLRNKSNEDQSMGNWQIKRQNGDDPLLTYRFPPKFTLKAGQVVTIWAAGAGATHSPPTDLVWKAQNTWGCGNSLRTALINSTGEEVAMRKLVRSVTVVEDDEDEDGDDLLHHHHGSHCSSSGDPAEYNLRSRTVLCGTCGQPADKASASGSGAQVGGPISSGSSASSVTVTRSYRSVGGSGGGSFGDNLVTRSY
UniProt Q86U44: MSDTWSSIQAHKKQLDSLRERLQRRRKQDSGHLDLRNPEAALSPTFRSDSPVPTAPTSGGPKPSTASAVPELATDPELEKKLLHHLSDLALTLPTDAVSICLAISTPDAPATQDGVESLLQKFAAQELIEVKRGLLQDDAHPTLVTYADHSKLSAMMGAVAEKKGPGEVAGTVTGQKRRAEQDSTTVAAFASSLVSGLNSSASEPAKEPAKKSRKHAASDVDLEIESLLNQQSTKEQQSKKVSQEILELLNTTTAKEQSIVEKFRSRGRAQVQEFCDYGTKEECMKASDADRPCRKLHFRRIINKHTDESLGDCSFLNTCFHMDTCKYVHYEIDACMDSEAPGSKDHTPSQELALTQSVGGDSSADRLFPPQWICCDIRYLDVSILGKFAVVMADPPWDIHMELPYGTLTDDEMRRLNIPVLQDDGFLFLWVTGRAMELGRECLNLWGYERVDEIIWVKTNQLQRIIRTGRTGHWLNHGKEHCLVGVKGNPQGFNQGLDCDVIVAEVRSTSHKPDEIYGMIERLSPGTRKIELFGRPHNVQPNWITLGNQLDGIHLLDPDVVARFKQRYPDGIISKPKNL

Assays:
FLAG-Lamin A = FLAG-Lamin A (UniProt P02545); assay: co-IP; HEK293 cells overexpressing FLAG-Lamin A with HA-METTL14 or HA-METTL3; anti-FLAG immunoprecipitates blotted; lysis buffer 20 mM Tris-HCl pH 7.5, 300 mM NaCl, 10% glycerol, 0.1 mM EDTA, 0.1% NP-40; 4°C overnight
FLAG-SC35 = target: T1, FLAG-SC35 (UniProt Q01130); assay: co-IP; FLAG-SC35 with HA-METTL14 in the presence of co-expressed Lamin A, prelamin A or Progerin; cells not given; lysis buffer 20 mM Tris-HCl pH 7.5, 300 mM NaCl, 10% glycerol, 0.1 mM EDTA, 0.1% NP-40
T1 sequence: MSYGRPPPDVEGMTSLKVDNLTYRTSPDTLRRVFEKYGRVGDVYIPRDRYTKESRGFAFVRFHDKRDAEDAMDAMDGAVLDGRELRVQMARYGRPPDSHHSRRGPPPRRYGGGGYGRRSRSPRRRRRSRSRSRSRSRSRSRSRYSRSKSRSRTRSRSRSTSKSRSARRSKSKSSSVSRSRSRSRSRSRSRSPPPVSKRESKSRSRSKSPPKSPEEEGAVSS

binding (FLAG-Lamin A): binds
Molecule: HA-METTL3 (from UniProt Q86U44 1-580)

binding (FLAG-SC35): binds | binding (FLAG-Lamin A): binds
B1: HA-METTL14 (protein, UniProt Q9HCE5 1-456)
chain: MDSRLQEIRERQKLRRQLLAQQLGAESADSIGAVLNSKDEQREIAETRETCRASYDTSAPNAKRKYLDEGETDEDKMEEYKDELEMQQDEENLPYEEEIYKDSSTFLKGTQSLNPHNDYCQHFVDTGHRPQNFIRDVGLADRFEEYPKLRELIRLKDELIAKSNTPPMYLQADIEAFDIRELTPKFDVILLEPPLEEYYRETGITANEKCWTWDDIMKLEIDEIAAPRSFIFLWCGSGEGLDLGRVCLRKWGYRRCEDICWIKTNKNNPGKTKTLDPKAVFQRTKEHCLMGIKGTVKRSTDGDFIHANVDIDLIITEEPEIGNIEKPVEIFHIIEHFCLGRRRLHLFGRDSTIRPGWLTVGPTLTNSNYNAETYASYFSAPNSYLTGCTEEIERLRPKSPPPKSKSDRGGGAPRGGGRGGTSAGRGRERNRSNFRGERGGFRGGRGGAHRGGFPPR
